Measured values taken from US20100240627A1, “COMPOSITION AND METHODS RELATING TO GLUCOCORTICOID RECEPTOR-ALPHA AND PEROXISOME PROLIFERATOR-ACTIVATED RECEPTORS” (Universiteit Gent, priority 2007, published 2010).
“Also recorded” adds a separate entry of the source. At least one structure is not confirmed: it was looked up by name or label, or the drawing left a doubt.

Tests used:
SGK1 mRNA = SGK1 mRNA in primary hepatocytes of WT and PPARα KO mice; assay type: cell-based, mouse; details: 24 h
[1] = system: GRα recruitment at the GILZ gene promoter; assay: ChIP of GR at the GILZ promoter in A549 cells; assay type: cell-based, human; details: 2 h, DEX 1 μM, WY 50 μM, GW647 500 nM
[2] = system: Glucocorticoid-induced Leucine Zipper (GILZ) mRNA; assay: QPCR of GILZ mRNA in HepG2 cells; assay type: cell-based, human; details: HepG2 (and A549) cells, 3 h; co-treatment compared to DEX alone
Experimental: (§1) RNA extraction is performed as described before (12). RNA is isolated from cells by using TRIzol reagent (Invitrogen) according to the manufacturer's instructions. The reverse transcriptase reaction is done by using MLV enzyme (Promega) followed by a PCR reaction with Taq polymerase (Promega) on the obtained cDNA. cDNA is analyzed either by a semi-quantitative PCR using Taq polymerase (Promega) or by real-time PCR with a SYBR Green mastermix (Invitrogen). Primers for QPCR of mIL-6: fwd […] (SEQ ID No. 1) and rev […] (SEQ ID No. 2); for mGILZ: fwd […] (SEQ ID No. […]) and rev […] (SEQ ID No. 4); for hGILZ: fwd […] (SEQ ID No. 5) and rev […] (SEQ ID No. 6); for mG6Pase: fwd […] (SEQ ID No. 7) and rev […] (SEQ ID No. 8); for rMCP-1: fwd […] (SEQ ID No. 9) and rev […] (SEQ ID No. 10); for mMMP-9: […] (SEQ ID No. 11) and rev […] (SEQ ID No. 12). Primers for semi-QPCR of hPLAP: fwd […] (SEQ ID No. 13) and rev […] (SEQ ID No. 14).
HepG2 cells and FTO2B cells are incubated with the indicated agents for three hours. mRNA is isolated, reverse transcribed and the resulting cDNA is subjected to SYBR green QPCR with primers to detect G6Pase or Glucocorticoid-induced Leucine Zipper (GILZ). QPCR measurements are performed in triplicate. QPCR results, normalized to expression of household genes, are shown ±SD, in FIGS. 2B and 2C. […]

[3] = system: GRE-driven gene transcription; assay: p(GRE)2-50-luc reporter in HepG2 cells; assay type: cell-based, human; details: HepG2, pSG5; 8 h; DEX 1 or 0.1 μM, GW647 500 nM
[4] = system: human placental alkaline phosphatase (hPAP) mRNA; assay: Semi-quantitative PCR of hPAP mRNA; assay type: cell-based; details: HepG2 and A549 cells, 8 h; DEX 1 μM, WY 10 μM; co-treatment compared to DEX alone
Experimental: as §1
A549 or HepG2 cells are treated for eight hours, mRNA is isolated, reverse transcribed and the resulting cDNA is subjected to semi-quantitative PCR analysis with primers to detect GAPDH (loading control) or hPAP in the same sample. […] Treatment with WY alone has no effect on hPAP mRNA expression.

[5] = system: RNA pol II recruitment at the GILZ gene promoter; assay: ChIP of RNA pol II at the GILZ promoter in A549 cells; assay type: cell-based, human; details: 2 h, DEX 1 μM, WY 50 μM, GW647 500 nM
GILZ mRNA = GILZ mRNA in primary hepatocytes of WT and PPARα KO mice; assay type: cell-based, mouse; details: 24 h
GILZ mRNA in mouse liver = assay: Liver GILZ mRNA in treated mice; assay type: in vivo; details: DEX 10 mg/kg i.p., FF 200 mg/kg gavage, daily 5 days
[6] = system: GRE-driven gene expression; assay: p(GRE)2-50-luc reporter in transfected HEK293T cells; assay type: cell-based; details: HEK293T with pSVhGRα and pSG5PPARδ; 8 h; L165041 1 μM, DEX 1 or 0.1 μM; FIG. 13B
Experimental: Cell lysates are assayed for luciferase activities and normalized for β-gal activities. A representative of three independent experiments is shown.

OPG transcript = OPG transcript in osteosarcoma cells; assay type: cell-based, human; details: DEX 10^−6M
[7] = system: TNF-induced IL-6 production in L929sA cells; assay: TNF-induced IL-6 production, murine IL-6 ELISA; assay type: cell-based; details: 1 h pre-incubation, TNF 200 IU/ml 24 h, DEX 0.01 μM, GW647 0.25-1 μM, WY 2-10 μM, FIG. 1
Experimental: Murine IL-6 ELISA is performed using a kit from Biosource.
Medium is collected to perform a murine IL-6 ELISA. Protein levels obtained in ng/ml are calculated as % of max TNF response. Results are shown ±SD. **P<0.01, ***P<0.001 in FIG. 1.

cathepsin K = assay: Cathepsin K expression in MG63b osteosarcoma cells; assay type: cell-based, human; details: 24 hour, DEX 10^−6M, WY 10 μM
RANKL = RANKL expression and RANKL/OPG ratio in Saos-2 cells; assay type: cell-based, human; details: DEX 10^-6M, 24 hours
ACO mRNA in mouse liver = assay: Liver ACO mRNA in treated mice; assay type: in vivo; details: DEX 10 mg/kg i.p., FF 200 mg/kg gavage, daily 5 days
Source text: Female C57BL6J mice are used at 8 weeks. Mice are randomized to four groups (six mice/group) and matched for body weight. Animals are killed by cervical dislocation after which thymus and liver are recovered and weighed. Total RNA is extracted from liver as described below. ANOVA is used for all analyses, followed by Scheffe post-hoc tests for treated vs control comparisons. The level of significance for all statistical analyses is set at p<0.05.
GILZ and ACO mRNA expression levels from the liver are quantified via QPCR and normalized for household gene expression. Results from triplicates are shown ±SD. Results are represented as relative expression fold, i.e. with the solvent-treated control value taken as 1.

primary adipocytes = primary adipocytes from ob/ob JNK1−/− mice; cited from earlier work
[8] = diet-induced obese JNK1-deficient mice; cited from earlier work
[9] = system: NF-κB-driven gene expression; assay: NF-κB-dependent reporter p(IL6κB)350hu.IL6P-luc+ in L929sA cells; assay type: cell-based; details: 1 h pre-incubation, TNF 2000 IU/ml 6 h, DEX 1 or 0.1 μM, Rosi 5 or 10 μM, FIG. 11A/14A
JNK = details: peripheral tissues, two murine models of obesity; cited from earlier work
[10] = WT hepatocytes, DEX 1 μM, WY 10 μM, GW9578 500 nM

SMILES | SGK1 mRNA expression (SGK1 mRNA; PPARα KO hepatocytes) | SGK1 mRNA expression (SGK1 mRNA; [10]) | GRα recruitment at the GILZ promoter [1] | GILZ mRNA expression [2] | p(GRE)2-50-Luc promoter activity [3] | hPAP mRNA expression [4] | RNA pol II recruitment at the GILZ promoter [5] | GILZ mRNA expression (GILZ mRNA; PPARα KO hepatocytes) | GILZ mRNA expression (GILZ mRNA; [10]) | GILZ mRNA levels in liver (GILZ mRNA in mouse liver) | GRE-driven gene expression (luc) [6] | levels of OPG transcript (OPG transcript) | TNF-induced IL-6 production [7] | cathepsin K expression (cathepsin K) | RANKL expression (RANKL) | ACO mRNA levels in liver (ACO mRNA in mouse liver) | insulin-induced glucose uptake (primary adipocytes) | hypoglycemic action [8] | TNF-induced NF-κB-driven gene expression (luc) [9] | abnormally elevated levels of INK activity (JNK)
C[C@@H]1C[C@H]2[C@@H]3CCC4=CC(=O)C=C[C@]4(C)[C@@]3(F)[C@@H](O)C[C@]2(C)[C@@]1(O)C(=O)CO [DEX, dexamethasone] | substantially upregulated | substantially upregulated | significant GRα recruitment | upregulates | strongly activates the promoter in a dose-dependent manner | upregulates | enhanced | substantially upregulated | substantially upregulated | significant increase in GILZ mRNA levels | can stimulate GRE-driven gene expression in a dose-responsive manner | negative effect | inhibited TNF-induced IL-6 production in a dose-responsive manner | upregulation | significant increase | – | – | – | – | –
CC(C)OC(=O)C(C)(C)Oc1ccc(C(=O)c2ccc(Cl)cc2)cc1 [FF, fenofibrate] | – | – | – | – | – | – | – | – | – | decrease in basal GILZ mRNA gene expression | – | – | – | – | – | significant induction of ACO mRNA levels | – | – | – | –
CN(CCOc1ccc(CC2SC(=O)NC2=O)cc1)c1ccccn1 (stereo not drawn) [Rosi, rosiglitazone] | – | – | – | – | – | – | – | – | – | – | – | – | – | – | – | – | fails to enhance | abrogated | blocks TNF-induced NF-κB-driven gene expression in a dose-responsive manner; also recorded: can block TNF-induced NF-kappaB-driven gene expression in a dose-responsive manner | inhibited
